For one molecule, binding results are on record in article PMC10716047.

Results are given in words; binding and its absence hold for the method and conditions named. Binding seen in cells or lysates may run through a third protein. For some assays here: A result given as binding can be weak or reduced; the word gives no strength. Where a sequence is shown, tags or fusion partners need not be part of it.

Assay [1] has as its target FLAG-tagged SMIMP deletion mutant M4 (amino acids 16–20 deleted) (human). As to the kind of experiment: co-IP; HEK293FT cells cotransfected with HA-tagged SMC1A (wild type or truncation) and FLAG-tagged SMIMP (wild type or deletion mutant), lysates immunoprecipitated with anti-FLAG antibody, immunoblot.
The target of assay [2] is FLAG-tagged wild-type SMIMP (human). The description is as above.

B1: hemagglutinin (HA)-tagged wild-type (WT) SMC1A (protein, UniProt Q14683 1-1233)
chain: MGFLKLIEIENFKSYKGRQIIGPFQRFTAIIGPNGSGKSNLMDAISFVLGEKTSNLRVKTLRDLIHGAPVGKPAANRAFVSMVYSEEGAEDRTFARVIVGGSSEYKINNKVVQLHEYSEELEKLGILIKARNFLVFQGAVESIAMKNPKERTALFEEISRSGELAQEYDKRKKEMVKAEEDTQFNYHRKKNIAAERKEAKQEKEEADRYQRLKDEVVRAQVQLQLFKLYHNEVEIEKLNKELASKNKEIEKDKKRMDKVEDELKEKKKELGKMMREQQQIEKEIKEKDSELNQKRPQYIKAKENTSHKIKKLEAAKKSLQNAQKHYKKRKGDMDELEKEMLSVEKARQEFEERMEEESQSQGRDLTLEENQVKKYHRLKEEASKRAATLAQELEKFNRDQKADQDRLDLEERKKVETEAKIKQKLREIEENQKRIEKLEEYITTSKQSLEEQKKLEGELTEEVEMAKRRIDEINKELNQVMEQLGDARIDRQESSRQQRKAEIMESIKRLYPGSVYGRLIDLCQPTQKKYQIAVTKVLGKNMDAIIVDSEKTGRDCIQYIKEQRGEPETFLPLDYLEVKPTDEKLRELKGAKLVIDVIRYEPPHIKKALQYACGNALVCDNVEDARRIAFGGHQRHKTVALDGTLFQKSGVISGGASDLKAKARRWDEKAVDKLKEKKERLTEELKEQMKAKRKEAELRQVQSQAHGLQMRLKYSQSDLEQTKTRHLALNLQEKSKLESELANFGPRINDIKRIIQSREREMKDLKEKMNQVEDEVFEEFCREIGVRNIREFEEEKVKRQNEIAKKRLEFENQKTRLGIQLDFEKNQLKEDQDKVHMWEQTVKKDENEIEKLKKEEQRHMKIIDETMAQLQDLKNQHLAKKSEVNDKNHEMEEIRKKLGGANKEMTHLQKEVTAIETKLEQKRSDRHNLLQACKMQDIKLPLSKGTMDDISQEEGSSQGEDSVSGSQRISSIYAREALIEIDYGDLCEDLKDAQAEEEIKQEMNTLQQKLNEQQSVLQRIAAPNMKAMEKLESVRDKFQETSDEFEAARKRAKKAKQAFEQIKKERFDRFNACFESVATNIDEIYKALSRNSSAQAFLGPENPEEPYLDGINYNCVAPGKRFRPMDNLSGGEKTVAALALLFAIHSYKPAPFFVLDEIDAALDNTNIGKVANYIKEQSTCNFQAIVISLKEEFYTKAESLIGVYPEQGDCVISKVLTFDLTKYPDANPNPNEQ
For B1, the binding entry in assay [1] is on record as “no binding”; in assay [2], “binds”.
